No constants are given. Whether binding was seen depends on the method and setting. In cells and extracts the contact can be indirect. Binding calls can cover weak binding; strength is not graded here.
Target: connexin 43 (rat (endogenous in NRVCs)) (UniProt P08050)
Assay: co-IP; NRVC lysate (20 mM Tris HCl pH 8, 137 mM NaCl, 10% glycerol, 1% Nonidet P-40, 2 mM EDTA) rotated with a specific antibody (against Cx43 or against BAG3) or normal rabbit serum for 4 hours at 4 °C, then protein A/G beads for 4 hours at 4 °C; Western blot of the immunocomplexes

By UniProt entry, the sequences of proteins in these tests, tags left out. Where a name states a change or a piece, a line headed by the entry shows the natural chain unless it says otherwise.
UniProt P08050: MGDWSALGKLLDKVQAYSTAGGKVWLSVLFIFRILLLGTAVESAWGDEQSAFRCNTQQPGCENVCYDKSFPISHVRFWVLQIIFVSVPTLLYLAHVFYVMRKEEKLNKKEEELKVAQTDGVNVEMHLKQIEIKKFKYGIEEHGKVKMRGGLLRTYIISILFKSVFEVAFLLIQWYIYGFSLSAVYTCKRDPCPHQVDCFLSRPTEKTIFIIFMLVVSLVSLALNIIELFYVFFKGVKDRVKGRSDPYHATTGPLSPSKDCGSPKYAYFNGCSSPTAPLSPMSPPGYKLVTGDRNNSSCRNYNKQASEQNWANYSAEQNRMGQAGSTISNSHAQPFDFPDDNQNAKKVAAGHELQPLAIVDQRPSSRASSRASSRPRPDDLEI
UniProt A6IA08: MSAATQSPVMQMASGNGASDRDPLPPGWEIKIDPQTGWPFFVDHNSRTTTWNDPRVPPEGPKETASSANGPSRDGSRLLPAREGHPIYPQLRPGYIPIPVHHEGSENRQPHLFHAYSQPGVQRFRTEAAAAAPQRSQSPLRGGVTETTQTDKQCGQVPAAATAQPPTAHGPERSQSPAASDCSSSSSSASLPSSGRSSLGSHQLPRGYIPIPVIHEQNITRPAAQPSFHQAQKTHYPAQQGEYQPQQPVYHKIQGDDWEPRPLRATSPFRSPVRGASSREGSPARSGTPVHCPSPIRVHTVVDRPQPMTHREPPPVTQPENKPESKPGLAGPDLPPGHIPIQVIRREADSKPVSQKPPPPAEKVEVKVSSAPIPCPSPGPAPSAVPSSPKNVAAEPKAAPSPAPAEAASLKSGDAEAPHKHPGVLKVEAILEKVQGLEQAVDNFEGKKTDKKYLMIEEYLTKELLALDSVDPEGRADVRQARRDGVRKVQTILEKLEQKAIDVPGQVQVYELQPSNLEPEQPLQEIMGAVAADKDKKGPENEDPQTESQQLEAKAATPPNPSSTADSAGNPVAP

Bcl2-associated athanogene 3 (from UniProt A6IA08)
binding: binds
